Data published in PMC11875811.

Protein sequences, listed by entry. Tags and fused reporters are not part of them. Lines headed by an entry give the natural chain unless they say otherwise; changes in a name come on top.
UniProt P42224: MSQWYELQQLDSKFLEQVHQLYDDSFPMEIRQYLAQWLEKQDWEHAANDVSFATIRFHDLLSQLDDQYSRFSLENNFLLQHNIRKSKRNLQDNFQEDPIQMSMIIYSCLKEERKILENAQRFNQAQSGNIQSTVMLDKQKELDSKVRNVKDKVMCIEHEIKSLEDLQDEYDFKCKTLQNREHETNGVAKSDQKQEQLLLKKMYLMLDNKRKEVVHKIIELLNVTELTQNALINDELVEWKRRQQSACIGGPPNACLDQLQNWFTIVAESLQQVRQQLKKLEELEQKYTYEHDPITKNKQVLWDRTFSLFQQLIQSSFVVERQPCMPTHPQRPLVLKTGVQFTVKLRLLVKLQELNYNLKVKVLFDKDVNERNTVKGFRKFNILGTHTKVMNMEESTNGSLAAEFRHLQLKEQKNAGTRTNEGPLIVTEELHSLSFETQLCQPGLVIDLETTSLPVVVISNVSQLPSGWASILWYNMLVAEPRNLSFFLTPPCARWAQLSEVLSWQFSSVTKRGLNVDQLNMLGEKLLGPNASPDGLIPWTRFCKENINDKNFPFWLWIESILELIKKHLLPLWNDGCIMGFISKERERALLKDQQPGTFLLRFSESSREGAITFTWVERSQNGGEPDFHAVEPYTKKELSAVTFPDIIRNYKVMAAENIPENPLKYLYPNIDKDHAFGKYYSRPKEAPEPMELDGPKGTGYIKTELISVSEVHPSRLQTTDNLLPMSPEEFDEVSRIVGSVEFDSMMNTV

What was measured:
[1] = target: FLAG-STAT1 (UniProt P42224); experiment: pull-down; details: pull-down: 0.1% NP40 buffer, 1 uM biotin dsDNA, streptavidin beads 2 h at 4 C, salt and pH not stated, protein in a lysate after overexpression, protein details: FLAG, label: 5' biotin
[2] = target: STAT1 (recombinant) (human) (UniProt P42224); experiment: EMSA; details: EMSA: 30 min incubation, FAM probe (amount printed as '10 p.m.'), native 5% PAGE in 0.5x TBE, recombinant protein, label: FAM

Sequence | binding result ([1]; cells pretreated with 25 uM sulforaphane, then IFN-g) | binding result ([1]; cells treated with IFN-g 200 ng/mL, no SFN) | binding result ([2]; STAT1 pretreated with 25 uM sulforaphane) | binding result ([2]; no SFN)
TTCCCCGAATTCCCCGAA (double strand) [2xGAS probe (pull-down)] | binds more weakly | binds | – | –
GCCTGATTTCCCCGAAATGACGGCAC (double strand) [IRF1 promoter probe (EMSA)] | – | – | binds more weakly | binds

The exact form of at least one protein or probe is not confirmed. The comparison behind a weaker result is the experiment's own reference, which may not be listed here. For some of these results: Results from cells or extracts need not show a direct contact. At least one verdict rests on a figure or table, not on a statement of the authors.
